Source: publication PMC7819943, “Rice protein-binding microarrays: a tool to detect cis-acting elements near promoter regions in rice”
Some of the results follow.

Amino acid sequences for entries named in this document (tags omitted).
UniProt Q0JBA9, entry or part of it: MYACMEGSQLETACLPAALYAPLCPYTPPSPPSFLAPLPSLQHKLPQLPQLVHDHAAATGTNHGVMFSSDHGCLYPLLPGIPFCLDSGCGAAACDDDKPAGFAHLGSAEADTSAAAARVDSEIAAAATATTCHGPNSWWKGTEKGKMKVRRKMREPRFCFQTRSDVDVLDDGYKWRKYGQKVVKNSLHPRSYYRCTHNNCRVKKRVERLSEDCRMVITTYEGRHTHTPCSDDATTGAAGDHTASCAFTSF

target: OsWRKY34 (Oryza sativa, UniProt Q0JBA9 1-250); experiment: protein-binding microarray (RPBM); PBS, 2% BSA, 51.3 ng/ul salmon testes DNA, 50 uM zinc acetate, 200 nM TF, 25 C, 1 h; high values mean tight binding; conditions: protein: recombinant; tags: N-terminal polyhistidine and DsRed monomer fusion (pET32a); label: CyDye5-dUTP incorporated in the synthesized complementary strand; 3' TTTTT single-stranded linker to array surface; dsDNA, one strand shown
How it was run: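 Binding signal is reported as fluorescence intensity per feature (arbitrary units) from an Axon 4000B scanner. Incubation used 200 nM of each Ni–NTA-purified, N-terminally polyhistidine- and DsRed-fused transcription factor from E. coli BL21-CodonPlus on a double-stranded custom Agilent array for 1 h at 25 °C, with 50 µM zinc acetate in the buffer, followed by washing.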

First: ACTGCGCTCCGTACTTGCAACTGCACGCATCATTCAGAAACGGAGTCACCTAGTGCAG
Second: TGAGTATGATGAGATTAATTTCTTGCCTGTTTCTGCTGGACGGAGTCACCTAGTGCAG
The binding signal of the first is lower: 8080 fluorescence intensity (a.u.) for the first, 8120 fluorescence intensity (a.u.) for the second.

Compared with “CGTCGTCTTCCTCACCGTTCGCGCATCAACAACCTTGTCGCGGAGTCACCTAGTGCAG”, “ATTAGATTCTACTATTCATGCAGGGGTAAGATGGGCATTTCGGAGTCACCTAGTGCAG” is lower in binding signal: 9650 fluorescence intensity (a.u.) for the first, 8910 fluorescence intensity (a.u.) for the second.

Compared with “CGTGCCACTCGATTTGTTGATTTGTTGCCGATTTGCTGCCCGGAGTCACCTAGTGCAG”, “TCTTTGCAGGTCACTTCCGGGTGCTTCACATTCCGGTTAACGGAGTCACCTAGTGCAG” is lower in binding signal: 10800 fluorescence intensity (a.u.) for the first, 8890 fluorescence intensity (a.u.) for the second.

Going from “CCCTATATAAGTCATTTTGTTTCAAATGTCCATCCACATACGGAGTCACCTAGTGCAG” to “GCCCCTTATTTGTTCATGCGTTGCTCCACATCCTCCATAACGGAGTCACCTAGTGCAG”, the binding signal rises from 9750 fluorescence intensity (a.u.) to 11200 fluorescence intensity (a.u.).

First: TTTTTTTTGAGAGTAGCTATATTTATGGCGCCATATTTTTCGGAGTCACCTAGTGCAG
Second: ATTCACCGTACCCCGCTAGCCCTTGTTACTTCCAGTCTCTCGGAGTCACCTAGTGCAG
The binding signal of the first is lower: 8420 fluorescence intensity (a.u.) for the first, 14500 fluorescence intensity (a.u.) for the second.

First: CTGCCACGCCGCCGTAACCACCACTCAACTGCCACATACCCGGAGTCACCTAGTGCAG
Second: GGCAATCTAGTCTTTTTCGATTGTTTCTCTCTCCATTTTCCGGAGTCACCTAGTGCAG
The binding signal of the first is lower: 9130 fluorescence intensity (a.u.) for the first, 9660 fluorescence intensity (a.u.) for the second.

Going from “TGCTGCCCATCCCCTCCATTGCTAGCATCGGCAGCTTCCACGGAGTCACCTAGTGCAG” to “GGCTGGGGTGGGCTCTACTTGACAGACTGATACTCCTACTCGGAGTCACCTAGTGCAG”, the binding signal rises from 8870 fluorescence intensity (a.u.) to 19600 fluorescence intensity (a.u.).

First: GATCTGTCTACACATGCATGACCCTCGCGAGACTCATCTCCGGAGTCACCTAGTGCAG
Second: CGTCCTCGCGGGCGCGCTGCCGATTTCCCCTGCGCGCACACGGAGTCACCTAGTGCAG
The binding signal of the first is higher: 11600 fluorescence intensity (a.u.) for the first, 8290 fluorescence intensity (a.u.) for the second.

Going from “TTTTTTTCTCTCGAGGGGATGTCTCTTCCTTTCATGTCTTCGGAGTCACCTAGTGCAG” to “TCTCTGTGTACCGTTTCTCTCGCCGATTGTGTACCGATTCCGGAGTCACCTAGTGCAG”, the binding signal rises from 8180 fluorescence intensity (a.u.) to 9360 fluorescence intensity (a.u.).

Compared with “TTTTTTTCGTCGGTATATATCCATGTGTGATCTTGTTTTGCGGAGTCACCTAGTGCAG”, “AATTCCTGCGTTTTTCATGTGGTCCAATCAAACGGTCATTCGGAGTCACCTAGTGCAG” is lower in binding signal: 11200 fluorescence intensity (a.u.) for the first, 8780 fluorescence intensity (a.u.) for the second.

Compared with “GGATTATTTTGGCGATAATATGAACAGCCCTTACATTTCTCGGAGTCACCTAGTGCAG”, “GCCGCCTGGCCGCCAACACGTCCAGTACGCCGTTCGTTACCGGAGTCACCTAGTGCAG” is lower in binding signal: 8980 fluorescence intensity (a.u.) for the first, 8780 fluorescence intensity (a.u.) for the second.

Compared with “GACCAACCCATTGCATGTTCCTTTTTCGTAACAATTTTAACGGAGTCACCTAGTGCAG”, “AATAATCGAATCCAATCCATCTTCCACGCGCATTCCGGATCGGAGTCACCTAGTGCAG” is lower in binding signal: 11200 fluorescence intensity (a.u.) for the first, 9290 fluorescence intensity (a.u.) for the second.

First: ATTTTTGTGTCAAGGTTGCCATTCTCTTTCCTGAATTTGTCGGAGTCACCTAGTGCAG
Second: TTTATTCGTCCTGTTCCTTTCGTTCCATTCCTAAATCCTACGGAGTCACCTAGTGCAG
The binding signal of the first is lower: 8390 fluorescence intensity (a.u.) for the first, 8600 fluorescence intensity (a.u.) for the second.

Compared with “TGCGGTTCCGTGTCGTCCAAATTAATGTGTCACTGTTAATCGGAGTCACCTAGTGCAG”, “CTTGGCCGATAACCCGTCTCACCGCCAAATCGCCAATCTCCGGAGTCACCTAGTGCAG” is lower in binding signal: 8880 fluorescence intensity (a.u.) for the first, 8340 fluorescence intensity (a.u.) for the second.

Compared with “ACCACTTGGCTTTCTTTCTTTTATCCGGTTAGTTCCGGCGCGGAGTCACCTAGTGCAG”, “TAAAATCTGCACTAGTGTTTTTCCAAGCTTTTTTTTTTTTCGGAGTCACCTAGTGCAG” is higher in binding signal: 8090 fluorescence intensity (a.u.) for the first, 10800 fluorescence intensity (a.u.) for the second.

Compared with “GTGTTGGTTATGTACCTCATACTGTGCATGATTTGTCCCTCGGAGTCACCTAGTGCAG”, “CTCGGTGATGCATCGGATATGTTCCATGTTATATTTAAGTCGGAGTCACCTAGTGCAG” is lower in binding signal: 8710 fluorescence intensity (a.u.) for the first, 8110 fluorescence intensity (a.u.) for the second.

Going from “GTAGACCCACATGTCATTGAGATAGGGGTGGCAAATAGTTCGGAGTCACCTAGTGCAG” to “ATCCAAAGCCTATGTCCATTCAGCCCATTACGGTCTGGCCCGGAGTCACCTAGTGCAG”, the binding signal rises from 8170 fluorescence intensity (a.u.) to 10300 fluorescence intensity (a.u.).

First: CCCAGTATTTTTCACTTACCTTTCACCCTTTTAACTTTTGCGGAGTCACCTAGTGCAG
Second: GTACAATTGCTTGTGATAATAATTAATTTGACCTATTAAACGGAGTCACCTAGTGCAG
The binding signal of the first is higher: 8350 fluorescence intensity (a.u.) for the first, 8210 fluorescence intensity (a.u.) for the second.

Compared with “TCATGTGGCCTGTTGGGTTAGTATTGTCAACCGGATCTGACGGAGTCACCTAGTGCAG”, “GTTCTATCCTTTCCATCTCCTTTGCAGCAGTCAAGAATATCGGAGTCACCTAGTGCAG” is lower in binding signal: 13200 fluorescence intensity (a.u.) for the first, 11400 fluorescence intensity (a.u.) for the second.

Going from “GAATCCCAACCATCCATCTGCATCCGCATTGCCCTAATCCCGGAGTCACCTAGTGCAG” to “GGAGTGTGGCGGAGCGGGAGTTCGCGGGCGGACGGCGGGGCGGAGTCACCTAGTGCAG”, the binding signal falls from 12000 fluorescence intensity (a.u.) to 11700 fluorescence intensity (a.u.).

Compared with “TGAGTTTAGGGGTATATATTTCTGGTTTTATGGTTAAGGGCGGAGTCACCTAGTGCAG”, “TGTGGCATTCGCTAAAGTTTCAAGCGTTATTTTGTTTTGGCGGAGTCACCTAGTGCAG” is lower in binding signal: 12500 fluorescence intensity (a.u.) for the first, 8320 fluorescence intensity (a.u.) for the second.
